Experimental data from patent US20240172759A1, “FORMULATION COMPRISING CHLORITE AND PERCARBONATE SALTS” (ASEPTIC HEALTH, LLC, priority 2021, published 2024).
At least one structure is not confirmed: it was looked up by name or label, or the drawing left a doubt.

System: Pseudomonas aeruginosa ATCC 27853
Assay: Minimum inhibitory concentration (MIC) broth dilution assay
Assay type: cell-based
Settings: MIC given as dilution of the stated solution; serial 1:2 dilutions, 10^6 CFU, growth read after 16 to 24 hours

[O][Cl+][O-] [0.5% Chlorine Dioxide, Chlorine Dioxide]
MIC against Pseudomonas aeruginosa ATCC 27853: 1:32
